{
  "source": "ChEMBL document CHEMBL4219073",
  "about": "“Development of selective inhibitors for the treatment of rheumatoid arthritis: (R)-3-(3-(Methyl(7H-pyrrolo[2,3-d]pyrimidin-4-yl)amino)pyrrolidin-1-yl)-3-oxopropanenitrile as a JAK1-selective inhibitor” (Bioorg Med Chem, 2018)",
  "key": {"[1]": {"assay": "in vivo", "conditions": "rat, po, 10 mg/kg"}, "[2]": {"assay": "in vivo", "conditions": "rat, po, 10 mg/kg", "remark": "listed apart in the source"}, "[3]": {"assay": "in vivo", "conditions": "dog, po, 5 mg/kg"}, "[4]": {"assay": "in vivo", "conditions": "rat, po, 10 mg/kg", "remark": "listed apart in the source"}},
  "data": [
    {"molecule": "C[C@@H]1CCN(C(=O)CC#N)C[C@@H]1N(C)c1ncnc2[nH]ccc12", "note": "[TOFACITINIB]", "values": [
      {"measurement": "Cmax", "setting": "[1]", "value": 2400, "unit": "ng/mL"},
      {"measurement": "Tmax", "setting": "[2]", "value": 18.6, "unit": "min"},
      {"measurement": "AUC(0-inf)", "setting": "[3]", "value": 2300, "unit": "ng·h/mL"},
      {"measurement": "AUC(0-inf)", "setting": "[4]", "value": 2800, "unit": "ng·h/mL"}
    ]}
  ]
}
